Measurements reported in PubChem BioAssay AID652259 (Drosophila RNAi Screening Center, 2013).
The screen tested about 22,000 reagents; below is a random part of those that have a named target and a result. Of all reagents, 233 (1.1%) got an active call. 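Light values are raw, unnormalised plate reads; the ratio scores behind the reporter calls were not deposited.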 The numbers tell different reagents against one gene apart. Names joined by + are all predicted targets of the reagent. Not stated in the record: the amount of reagent, the time to read-out, the dose of the treatment.

Screen: 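Identify new Wingless signalling regulators in fly cells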 (primary screen)
Cells: Drosophila clone 8 imaginal disc epithelial cells
Reagents: long dsRNA against Drosophila genes
Treatment: pathway stimulated by co-transfected Wingless expression plasmid
Detection: 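Firefly luciferase from a tcf-site Wingless reporter, measured alongside co-transfected Renilla luciferase that tracks transfection; pathway stimulated by a Wingless plasmid; the firefly-to-Renilla ratio is not deposited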
Scale: firefly reporter light: higher = more Wg reporter light, before normalisation; Renilla control light: higher = more transfected or surviving cells
Call rule: 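a knock-down is a candidate when at least two out of four statistical tests show it departing from its plate mean; one test alone signals a weak candidate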
Meaning of the calls: active = candidate regulator (raises or lowers reporter); inactive = not a candidate

predicted target	reagent no.	reporter change call, replicate 1	firefly reporter light, replicate 1	firefly reporter light, replicate 2	Renilla control light, replicate 1	Renilla control light, replicate 2	Call
Use1	1		1306	9797	1469	4085	inactive
CG8066	1		8608		3252		inactive
CG4619	1		8137		1696		inactive
NPF	1		15669		3939		inactive
p	1		10124		3168		inactive
Tnpo-SR	1		8788		4282		inactive
Pfdn5	1		4071	7769	1936	2457	inactive
CG9021	1		8229		3659		inactive
CG9067	1		9188		3736		inactive
CG8611	1		1627	5581	647	1804	inactive
Mal-A4	1		3206	8704	705	2509	inactive
Karybeta3	1		5079		1536		inactive
RpL36	1		22041		10810		inactive
CG15306	1		12934		8764		inactive
CG15306	2		17910		9875		inactive
CG10984	1		3783		2903		inactive
Gmer	1		11655		3315		inactive
CG1523	1		2549	4805	923	1770	inactive
CG12343	1		2284	5225	629	1894	inactive
Pgd	1		3339	4295	1240	1499	inactive
LIMK1	1		2336	5660	916	1969	inactive
Ilp6	1		21808		15712		inactive
CG13032	1		7769		2736		inactive
CG3699	1		29669		16561		inactive
CG3699	2		30944		17261		inactive
sens	1		2633		293		inactive
CG15034	1		19112		10757		inactive
CG13312	1		1467	6618	1056	2848	inactive
CG34161	1		25319		7634		inactive
CG30192	1		16516		7721		inactive
CG18605	1		8820		2455		inactive
shtd	1		2732	7672	934	2305	inactive
hzg	1	Wg reporter activity raised	9484		1456		active
HDAC3	1		3032		1683		inactive
Cyp12d1-d + Cyp12d1-p	1		4.50e5	4.58e5	2.78e5	1.93e5	inactive
Tektin-A	1		6017		2058		inactive
ninaA	1		12757		4512		inactive
Fbp1	1		4509		1813		inactive
CG31743 + CG34313	1		14917		4938		inactive
CG31743 + CG34313	2		1675	5120	1104	3344	inactive
CycE	1		5028		1627		inactive
CycE	2		2560	4845	1127	2628	inactive
Cpr47Eb	1		6826		2657		inactive

An excerpt from the list above, as a working copy:
predicted target	reagent no.	reporter change call, replicate 1	firefly reporter light, replicate 1	firefly reporter light, replicate 2	Renilla control light, replicate 1	Renilla control light, replicate 2	Call
CG10984	1		3783		2903		inactive
Gmer	1		11655		3315		inactive
CG1523	1		2549	4805	923	1770	inactive
CG12343	1		2284	5225	629	1894	inactive
Pgd	1		3339	4295	1240	1499	inactive
LIMK1	1		2336	5660	916	1969	inactive
Ilp6	1		21808		15712		inactive
CG13032	1		7769		2736		inactive

The results go on.
predicted target	reagent no.	reporter change call, replicate 1	firefly reporter light, replicate 1	firefly reporter light, replicate 2	Renilla control light, replicate 1	Renilla control light, replicate 2	Call
Lgr1	1		10754		1504		inactive
Shark	1		12154		3849		inactive
CG3091	1		20752		13460		inactive
CG34330	1		23309		10472		inactive
CG5676	1		2192	7387	965	3570	inactive
CG42747	1		982	6172	1104	3178	inactive
CG42747	2		1773	5729	1339	1769	inactive
CG11672	1		13362		3761		inactive
axo	1		3738		1243		inactive
axo	2		1484	12521	620	2840	inactive
axo	3		738	6528	288	1221	inactive
axo	4		3.44e5	3.78e5	1.94e5	1.35e5	inactive
MESR6	1		7943		2467		inactive
CG9168	1		5851		2288		inactive
CtsK1	1		4214		1938		inactive
l(2)k09848	1		14051		4394		inactive
melt	1		2080	11788	1335	4169	inactive
CG13699	1		5933		2628		inactive
CG3902	1		17125		3555		inactive
Nf1	1		1201	5165	528	2148	inactive
stmA	1		26963		13160		inactive
stmA	2		12816		3289		inactive
stmA	3		4.94e5	5.30e5	2.02e5	1.85e5	inactive
CG18223	1		8763		2425		inactive
Eglp1	1		20279		4332		inactive
Coprox	1		11463	8.58e5	2919	4.65e5	inactive
Adgf-C	1		19433		3155		inactive
fd96Cb	1		11270		11202		inactive
toy	1		2857	5040	1100	2146	inactive
NaPi-III	1		2816		1212		inactive
NaPi-III	2	Wg reporter activity raised	9132		886		active
NaPi-III	3		5.93e5	6.82e5	2.27e5	2.00e5	inactive
